In PubChem BioAssay AID540256 (National Center for Advancing Translational Sciences (NCATS), 2011):
Among all 300,000 compounds or so, about 3,700 (1.2%) were called active. The inconclusive results got no clear call from the source; some entries with a clear call stand among them for comparison. Calls follow the shape of the full dose curve; tested in HEK293 cells. Potencies beside an inconclusive call are fits to weak or partial responses and may not hold up.

Assay: qHTS for Inhibitors of binding or entry into cells for Lassa Virus; also: nearly all actives have a fitted effect of over 50% in size
Conditions: Lassa virus pseudotype entry inhibition, cell reporter; activity change, negative = inhibition: at 37.9 µM (top of the series) unless noted
% is scaled to controls: 0 for no effect and ±100 for the full control effect; potency is read from the fitted curve at half-maximal effect.

SMILES | Potency | activity change, negative = inhibition
CC(Sc1nc(N)c2c3c(sc2n1)CSC(C)(C)C3)C(=O)Nc1ccccc1 (stereo not given) | inconclusive: 35.5 µM [inhibitor, single point] | 
CC(=O)NCCn1c(SCC(=O)Nc2ccc(C)cc2)nc2ccccc2c1=O | inconclusive: 22.4 µM [inhibitor, single point] | 
CCCCn1c(SCC(=O)NCc2ccco2)nc2ccccc2c1=O |  | inactive: 8.72%
CCc1ccc(S(=O)(=O)N(C(=O)Oc2ccccc2)c2ccc3oc(C)c(C(=O)OC)c3c2)cc1 | inconclusive: 5.01 µM [inhibitor, partial curve, poor fit] | 
CCCCNC(=O)C1CCC(CNS(=O)(=O)c2ccc(Cl)cc2)CC1 (stereo not given) |  | inactive: 24.8% [at 46.1 µM]
O=C(NN=Cc1ccccc1)c1ccccc1 | inconclusive: 17.8 µM [inhibitor, single point] | 
Cc1cc(C)cc(N(CCC(=O)Nc2nnc(C)s2)S(=O)(=O)c2ccc(Cl)cc2)c1 | inconclusive: 0.708 µM [inhibitor, full curve, poor fit] | 
C[C@@H](C(=O)N=c1sc2ccccc2n1C)N1C(=O)C2CC=CCC2C1=O (stereo not given in full) | inconclusive: 3.55 µM [inhibitor, single point] | 
COc1cc2[nH]c(=O)n(CCCCCC(=O)NC3CCCC3)c(=O)c2cc1OC | inconclusive: 17.8 µM [inhibitor, single point] | 
CN(C)/C=C/C(=O)c1ccc(-c2ccc(Cl)cc2Cl)o1 | inconclusive: 1 µM [activator, single point] | 
CC(=O)OCC(=O)Nc1ccc([N+](=O)[O-])cc1Cl |  | inactive: 26.8% [at 46.1 µM]
CSc1nc2ccccc2cc1/C=C(\C#N)c1cccc(C)c1 | inconclusive: 6.31 µM [inhibitor, single point] | 
CC1C/C(=C/c2cccn2C)C(=O)/C(=C/c2cccn2C)C1 (stereo not given) | inconclusive: 20.6 µM [inhibitor, single point] | 
Cc1ccc(/C=C/c2ccc(=O)n(Cc3ccc(F)cc3)n2)cc1 | inconclusive: 8.91 µM [inhibitor, single point] | 
CC(=O)c1c(C)oc2ccc(N(C(C)=O)S(=O)(=O)c3ccc(F)cc3C)cc12 |  | inactive: -2.83%
CCN(CC)CCNC(=O)Nc1ccc2c(c1)N(Cc1ccccc1)C(=O)c1ccccc1S2 | inconclusive: 11.2 µM [inhibitor, partial curve] | 
O=C1c2cccc3cccc(c23)C(=O)N1OS(=O)(=O)c1ccc(Cl)cc1 | inconclusive: 4.61 µM [inhibitor, partial curve, poor fit] | 
Cc1ccccc1C(=O)Oc1c(Sc2ccccc2)c(C)nn1C(C)(C)C | inconclusive: 35.5 µM [activator, single point] | 
O=C(OCC(=O)N1CCCC1=O)c1ccc(Cl)cc1[N+](=O)[O-] |  | inactive: 14.1%
CC(C)(C)C(=O)/C=C(\N)c1ccncc1 |  | inactive: -2.62%
Cc1c(N2C(=O)CSC2c2ccc(F)cc2)c(=O)n(-c2ccccc2)n1C (stereo not given) |  | inactive: -6.17%
CC1CCCN(C(=O)C2CCCN(S(=O)(=O)c3cccc4nsnc34)C2)C1 (stereo not given) |  | inactive: -18.6%
Cn1c(=O)c2ncn(CC(=O)NCCOc3ccccc3)c2n(C)c1=O |  | inactive: 3.64%

Whole records, quoted from the list.
CCc1ccc(S(=O)(=O)N(C(=O)Oc2ccccc2)c2ccc3oc(C)c(C(=O)OC)c3c2)cc1 in the list: Potency: inconclusive: 5.01 µM [inhibitor, partial curve, poor fit]
CN(C)/C=C/C(=O)c1ccc(-c2ccc(Cl)cc2Cl)o1 in the list: Potency: inconclusive: 1 µM [activator, single point]

The list goes on:

SMILES | Potency | activity change, negative = inhibition
COc1ccc(Cl)cc1C(=O)C1CCCN(Cc2cnc(C)s2)C1 (stereo not given) | active: 11.2 µM | 
C=CCOc1ccc(/C=N/O)cc1Cl |  | inactive: 13%
CC(C)(C)NC(=O)C(c1ccncc1)N(Cc1ccc(F)cc1)C(=O)c1ccc(-c2ccccc2)[nH]1 (stereo not given) |  | inactive: -22% [at 46.1 µM]
OCCN1CCN(C2CCC(c3ccc(F)cc3)c3ccc(F)cc32)CC1 (stereo not given) | inconclusive: 35.5 µM [inhibitor, partial curve, poor fit] | 
Cc1ccc(NC(=S)NC(=O)c2ccc(F)cc2)cc1S(=O)(=O)Nc1ccccc1Cl | inconclusive: 11.2 µM [inhibitor, partial curve, poor fit] | 
O=C(CCn1cnnn1)Nc1cccc(F)c1 |  | inactive: 5.24%
Cc1c(C(=O)Nc2nccs2)oc2c(Cl)cccc12 | inconclusive: 11.2 µM [inhibitor, partial curve, poor fit] | 
Cc1cc(C)c(-n2c(SCc3nc4ccccc4s3)n[nH]c2=O)c(C)c1 | inconclusive: 35.5 µM [inhibitor, single point] | 
O=C(c1ccc(Cl)c(S(=O)(=O)Nc2ccccc2C(=O)N2CCc3ccccc3C2)c1)N1CCc2ccccc2C1 | inconclusive: 35.5 µM [inhibitor, single point] | 
O=C(/C=C/c1ccco1)N/C(=C\c1ccccc1)C(=O)NCCc1nc2ccccc2[nH]1 |  | inactive: -9.07%
Cc1nc(-c2ccc(F)cc2)c(CC(=O)N(C)CC(=O)Nc2ccc(F)cc2)s1 |  | inactive: 14.8%
CC(=O)Oc1ccc(C23c4ccccc4C2(OC(C)=O)c2cc(OC(C)=O)ccc23)cc1 (stereo not given) | inconclusive: 17.8 µM [inhibitor, single point] | 
O=C1CCCC=C1C(CCc1ccccc1)OC(=O)c1ccc(Br)cc1 (stereo not given) | inconclusive: 1.06 µM [activator, single point] | 
O=C(NCCc1ccccc1F)c1ccc2c(c1)OCCO2 | active: 0.891 µM | 
O=C(NN1C(=O)c2ccccc2C1=O)C1CC2CCC1C2 (stereo not given) | inconclusive: 35.5 µM [activator, single point] | 
O=C1NC2c3c(I)sc(I)c3C(=O)C2O1 (stereo not given) | active: 12.6 µM | 
Cc1ccc(OCCOc2cccc3ccc(C)nc23)c([N+](=O)[O-])c1 |  | inactive: 9.95% [at 46.1 µM]
N#C/C(=C\C=C\c1ccccc1)C(=O)NCc1cccnc1 | inconclusive: 35.5 µM [inhibitor, single point] | 
N#CC1=C(N)OC2=C(C(=O)CC(c3ccco3)C2)C1c1ccc(OCc2c(F)cccc2Cl)cc1 (stereo not given) | inconclusive: 35.5 µM [inhibitor, single point] | 
COC(=O)c1sc2nc(SCc3cccc(F)c3)n(N)c(=O)c2c1C | inconclusive: 7.08 µM [inhibitor, full curve, poor fit] | 
O=C(Nc1cccc(Br)c1)N1CCC(CN2CCCCCC2)CC1 | inconclusive: 14.1 µM [activator, partial curve, poor fit] | 
CC1(C)CC(=O)C2=C(C1)N(CC1CCCO1)C(=O)C2(NC(=O)c1cccnc1)C(F)(F)F (stereo not given) | inconclusive: 29.1 µM [activator, single point] | 
